The whole screen tested about 320,000 compounds, of which about 22,000 (6.9%) were called active. Inconclusive means that the source gave no clear call. Such entries were picked first, then a sample of the others. Calls come from the whole dose curve; as a rule, active = well fitted inhibition curve with a large enough effect; inconclusive = small, poorly fitted or top-dose-only effect, or another doubt; inactive = no such curve, though single readings can be large or run the other way. Where the call is inconclusive, the potency comes from a doubtful curve fit.
Assay: Primary qHTS for delayed death inhibitors of the malarial parasite plastid, 96 hour incubation
Settings: P. falciparum luciferase reporter growth; series mostly up to 28.7 µM
Outline: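 Readout is luminescence from an integrated firefly luciferase in P. falciparum. Red cells, 2% hematocrit and 0.05% parasitemia final, were cultured with compound through two parasite generations (96 hours) at 37 C, 5% CO2.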
For `Cc1ccc(C)c(CSc2nnc(-c3cccnc3)o2)c1`, the Potency was active: 13.1 µM. In the case of `CCn1c(CNC(=O)Cc2ccc(OC)cc2)nnc1SCC(=O)NC1CCCCC1`, the Potency is reported as inconclusive: 4.65 µM [inhibitor, partial curve]. With `O=[N+]([O-])c1cccc(/C=N\N2CCN(c3ccc(Cl)cc3)CC2)c1` the Potency was active: 8.28 µM. For `C/C(=N\NC(=S)NC(C)C)c1ccc(C(C)(C)C)cc1`, the Potency was active: 3.7 µM. With `Cc1ccc(Cn2c(=O)oc3ccccc32)cc1` the Potency was inconclusive: 9.28 µM [inhibitor, partial curve, poor fit]. In the case of `O=C(Cc1c[nH]c2ccccc12)N1CCc2ccccc21`, the Potency is reported as active: 10.4 µM. With `Cc1ccc(-n2ncc3c(=O)[nH]c(SCC(=O)N4CCCc5ccccc54)nc32)cc1` the Potency was inconclusive: 0.0928 µM [inhibitor, full curve]. With `N#C/C(=C\c1ccc(O)c(O)c1)C(=O)Nc1ccccc1` the Potency was inconclusive: 18.5 µM [inhibitor, single point]. In the case of `Cc1ccccc1NC(=O)COc1nsnc1N1CCOCC1`, the Potency is reported as “inactive”. In the case of `Brc1ccc(C2=Nc3cccc4cccc(c34)N2)o1`, the Potency is reported as inconclusive: 11.7 µM [inhibitor, single point]. With `Cc1ccc(C(=O)COC(=O)CNS(=O)(=O)c2ccc(C)cc2)cc1` the Potency was inconclusive: 18.5 µM [inhibitor, single point]. In the case of `O=C(NCC1CCCO1)c1ccc(CNS(=O)(=O)c2cccc(Cl)c2)cc1` (stereo not given), the Potency is reported as inconclusive: 2.94 µM [inhibitor, full curve, poor fit]. In the case of `O=C(O)c1cccn1Cc1ccccc1F`, the Potency is reported as inconclusive: 3.7 µM [inhibitor, partial curve]. With `NC(=O)c1nc(C(=O)N2CCCCC2)c2ccccc2n1` the Potency was “inactive”. For `COC(=O)[C@H](Cc1ccccc1)NC(=O)N1CC(C)OC(C)C1` (stereo not given in full), the Potency was inconclusive: 18.5 µM [inhibitor, single point]. For `CCOC(=O)C1(C)C=C(Nc2cccc(OC)c2)C(=O)N1c1ccccc1` (stereo not given), the Potency was inconclusive: 18.5 µM [inhibitor, single point]. In the case of `O=C(CCCN1C(=O)c2cccc3cccc(c23)C1=O)N1CCN(c2ncccn2)CC1`, the Potency is reported as inconclusive: 0.465 µM [inhibitor, partial curve, poor fit]. For `CC1CN(C(=O)CCn2c(=O)oc3ccccc32)CC(C)O1` (stereo not given), the Potency was inconclusive: 11.7 µM [inhibitor, single point]. For `O=[N+]([O-])c1ccc(Cl)cc1Sc1cccc2cccnc12`, the Potency was “inactive”. For `COC(=O)c1ccc(COc2ccccc2/C=N/Nc2cccc(C(=O)O)c2)cc1`, the Potency was “inactive”. For `O=C(COC(=O)c1ccc(S(=O)(=O)NCc2ccco2)cc1)Nc1ccccc1`, the Potency was “inactive”. In the case of `COc1ccc2[nH]cc(CCNC(=S)NC3CCCC3)c2c1`, the Potency is reported as inconclusive: 11.7 µM [inhibitor, single point]. With `C#C[C@@]1(O)CC[C@@H]2[C@H]3CCC4=C/C(=N\O)CC[C@H]4[C@@H]3CC[C@]21CC` the Potency was inconclusive: 12 µM [inhibitor, partial curve]. For `COc1ccc(CCNC(=O)c2c(C)nc3ccccn23)cc1`, the Potency was active: 11.7 µM. With `O=C(c1cc(F)ccc1F)C1CCCN(Cc2cc(Cl)ccc2O)C1` (stereo not given) the Potency was inconclusive: 5.22 µM [inhibitor, partial curve, poor fit]. In the case of `CN=C1c2cc3cc(OC)ccc3n2CCN1Cc1ccccc1`, the Potency is reported as inconclusive: 18.5 µM [inhibitor, partial curve, poor fit]. For `CC(C)CCN1C(=O)c2ccc(C(=O)N3CCCCC3)cc2C1=O`, the Potency was “inactive”. With `CCc1ccc2oc(-c3cc(N)ccc3Cl)nc2c1` the Potency was inconclusive: 16.5 µM [inhibitor, partial curve, poor fit]. With `O=C(N/N=C/c1cccnc1)C(=O)N1CCCCCC1` the Potency was inconclusive: 18.5 µM [inhibitor, partial curve, poor fit]. With `CC(=O)Nc1ccc(CC(=O)NCCC(c2ccccc2)c2ccccc2)cc1` the Potency was “inactive”. With `N#Cc1ccc(S(=O)(=O)N2CCN(CC(=O)NCC3(N4CCOCC4)CCCCC3)CC2)cc1` the Potency was inconclusive: 11.7 µM [inhibitor, partial curve, poor fit]. In the case of `CN(C)CCCn1c(=O)n(Cc2ccccc2)c(=O)c2c3c(sc21)CCCCC3`, the Potency is reported as inconclusive: 11.7 µM [inhibitor, single point]. With `O=C(c1ccc(-n2cccn2)cc1)N1CCc2c([nH]c3ccccc23)C1c1ccccn1` (stereo not given) the Potency was “inactive”. With `CCC(=O)N1CCc2cc(S(=O)(=O)N3CCN(c4cc(Cl)ccc4C)CC3)ccc21` the Potency was active: 5.22 µM. For `Cc1cc(NC(=O)CSc2nc(N)c(NC(=O)c3ccccc3F)c(=O)[nH]2)no1`, the Potency was inconclusive: 11.7 µM [inhibitor, single point]. In the case of `COc1ccccc1CNC(=O)CN(C)S(=O)(=O)c1ccc2c(c1)n(C)c(=O)c(=O)n2C`, the Potency is reported as inconclusive: 18.5 µM [inhibitor, single point]. With `c1ccc(-c2nnc3sc(-c4csc5c4CCCC5)nn23)cc1` the Potency was “inactive”. For `COc1cccc(CNC(=O)C2CCCN(S(=O)(=O)c3cccc4nonc34)C2)c1` (stereo not given), the Potency was inconclusive: 18.5 µM [inhibitor, single point]. For `COc1ccc(Nc2ccncc2[N+](=O)[O-])cc1`, the Potency was inconclusive: 18.5 µM [inhibitor, single point]. With `CCOC(=O)c1[nH]cnc1C(=O)NC(C)C` the Potency was inconclusive: 18.5 µM [inhibitor, partial curve, poor fit]. With `CCc1cc2c(SCC(=O)Nc3ccc(NC(C)=O)cc3)ncnc2s1` the Potency was inconclusive: 3.29 µM [inhibitor, partial curve, poor fit]. In the case of `COc1cc(OC)c(C(=O)N2CCN(c3ccccn3)CC2)cc1OC`, the Potency is reported as “inactive”. For `Cc1ccccc1Nc1nc(N)nc(COC(=O)c2cccc(S(=O)(=O)N(C)C)c2)n1`, the Potency was inconclusive: 11.7 µM [inhibitor, single point]. For `COc1cc(-c2nc3ccccn3c2/N=C/c2cc(OC)c(O)cc2Cl)ccc1O`, the Potency was “inactive”. In the case of `CCCCn1c(N)c(N(CCOC)C(=O)c2cccc(S(=O)(=O)N(C)c3ccccc3)c2)c(=O)[nH]c1=O`, the Potency is reported as “inactive”.

— PubChem BioAssay AID504834 (National Center for Advancing Translational Sciences (NCATS), 2011)
Potency is the fitted concentration of half-maximal effect.
